Measurements as given in patent US11993640B2, “Treating inflammatory lung disease” (United States Government as represented by the Department …, priority 2019, dated 2024).
Not every detail of the peptide structures is certain; ends, links or a residue may be inferred. Non-standard residues stand in square brackets, D forms with d. Residues, ends and D or L forms follow the SMILES beside them. *: point of attachment. Phenylacetyl(2,3,4,5,6-F5) = O=C(Cc1c(F)c(F)c(F)c(F)c1F)*; Phe(F5) = N[C@@H](Cc1c(F)c(F)c(F)c(F)c1F)C(=O)O; hArg = N=C(N)NCCCC[C@H](N)C(=O)O; 12Ado = NCCCCCCCCCCCC(=O)O; Nle = CCCC[C@H](N)C(=O)O; Abu = CC[C@H](N)C(=O)O

How the values were obtained:
rat pituitary cells = experiment: Inhibition of GHRH(1-29)NH2-stimulated GH release from rat pituitary cells (ELISA); assay type: cell-based; details: analog 20 nM
Method: In vitro assessment of the antagonistic activity of GHRH analogs. Rats were decapitated and pituitaries were collected in pre-warmed HBSS (Hanks' Balanced Salt Solution). Tissue was then cut into small pieces and digested in HBSS medium containing 3% BSA, 50 μg/ml gentamycin and 0.5% collagenase for 50 minutes at 37° C. Cells were further dispersed by pipetting and passed through a 100 μm cell strainer with the addition of DMEM containing 50 μg/ml gentamycin, 10% horse serum and 2.5% FBS (growth medium). Cells were harvested at 475×g for 2 minutes, resuspended in fresh growth medium and seeded onto poly-D-lysine-coated 24-well plates (7 pituitaries/plate). Cells were left to recover for 4 days. Growth medium was then replaced with serum-free DMEM for 4 hours and GHRH analogs (at concentration of 20 nM) were added in DMEM containing 0.1% BSA for 30 minutes. Cells were replenished with medium containing the same concentration of the analogs and 1 nM GHRH(1-29)NH2 for 30 minutes. Medium from this step was collected, centrifuged at 800 g for 3 minutes and GH concentration was determined by ELISA (ALPCO Diagnostics, Mill Valley, CA) according to the manufacturer's instruction.

[1] = biological target: T1, membrane GHRH-receptors on human anterior pituitary cells (Homo sapiens, UniProt Q02643); experiment: Competitive receptor binding, displacement of 125I-[His1,Nle27]-hGH-RH(1-32)NH2 from human pituitary membranes
T1 construct: Human pituitary was purchased from the National Hormone and Peptide Program; tissue National Hormone and Peptide Program; host or cells: human pituitary membrane fractions
T1 sequence (Q02643 23-423): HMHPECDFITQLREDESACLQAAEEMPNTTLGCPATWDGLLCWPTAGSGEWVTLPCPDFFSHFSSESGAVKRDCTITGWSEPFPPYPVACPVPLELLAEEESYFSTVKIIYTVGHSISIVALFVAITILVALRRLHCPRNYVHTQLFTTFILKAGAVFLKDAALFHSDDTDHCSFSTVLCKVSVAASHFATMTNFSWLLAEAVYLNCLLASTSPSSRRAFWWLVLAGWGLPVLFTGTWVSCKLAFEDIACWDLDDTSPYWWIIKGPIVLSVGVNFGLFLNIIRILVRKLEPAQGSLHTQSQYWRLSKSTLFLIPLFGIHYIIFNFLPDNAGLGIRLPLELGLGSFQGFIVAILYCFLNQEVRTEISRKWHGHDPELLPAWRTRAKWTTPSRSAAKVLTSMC
Method: Receptor binding affinities in vitro. Preparation of human pituitary membrane fractions and receptor binding of analogs of GH-RH were performed (Halmos G, Rekasi Z, Szoke B, Schally A V. (1993) Receptor 3:87-97). Human pituitary was purchased from the National Hormone and Peptide Program. […] Relative affinities compared to hGH-RH(1-29)NH2 were calculated as the ratio of IC50 (dose causing 50% inhibition of specific binding to receptors) of the tested peptides to the IC50 of hGH-RH(1-29)NH2. The values were calculated from technical duplicate tubes.
Nineteen new AVR analogs of GHRH were tested in the receptor binding assay. Table 6 presents the IC50 values of GHRH antagonists to membrane GHRH-receptors binding on human anterior pituitary cells.

CFPAC-1 xenograft = experiment: Xenograft tumor growth in nude mice, pancreatic cancer CFPAC-1; assay type: in vivo; details: Panel I, 7 weeks, 2.5 μg/day s.c., vs control
SK-OV-3 xenograft = experiment: Xenograft tumor growth in nude mice, ovarian cancer SK-OV-3; assay type: in vivo; details: Panel L, 7 weeks
Method: (§1) The peptides' activity was compared with GHRH antagonist MIA-602. All statistical analyzses were performed from comparing GHRA antagonists to non-treated tumor (control).
(§2) Peptides and chemicals. GHRH antagonists MIA-602 and AVR-GHRH antagonists (see Table 2 above) were synthesized by solid phase methods and purified by HPLC. The peptides were dissolved in DMSO and further diluted in 10% 1, 2-propanediol. The final concentration of peptides was 50 µg/ml in 10% 1, 2-propanediol containing 0.1% of DMSO.
(§3) Cell culture. Human cancer cell lines including pancreatic (PANC-1 and CFPAC-1), lung (HCC827 and H460), stomach (NCI-N87), prostate (PC3), brest (MX-1 and HCC-1806), colorectal (HT-29), and ovarian (SK-OV-3 and OVCAR-3) were obtained from the American Type Culture Collection (ATCC) and cultured at 37° C. in a humidified 95% air/5% CO2 atmosphere in the medium recommended by ATCC.
Xenograft models of human cancers in nude mice. Female athymic (NCr nu/nu) nude mice, 5-to 6-weeks-old, obtained from the Envigo labs (Tampa, FL), were housed in laminar airflow cabinets under pathogen-free conditions with a 12-h light/12-h dark schedule, and were fed autoclaved standard chow and water. To generate mice with xenografted tumors, tumor xenografts were initiated by subcutaneous (s.c.) injection of […] human cancer cells into female nude mice. After about 4 weeks the resulting tumors were dissected and collected after removing necrosis tissues. The tumors were then cut into particles with size of ˜3 mm3 and transplanted s.c. by trocar needle into experimental animals. When tumors grew to the size of 50-60 mm3 (by volume), mice were randomized into groups and treated daily for 4-8 weeks by subcutaneous administration of 5 μg of GHRH antagonists MIA-602 or AVR-compounds (2-10 μg as indicated), or vehicle solutions (0.1% DMSO in 10% 1, 2-propanediol) respectively. Tumor sizes were measured weekly.
Statistical analysis. One-way ANOVA followed by Bonferroni comparison were performed. Data are expressed as Mean±SEM. […]

OVCAR-3 xenograft = experiment: Xenograft tumor growth in nude mice, ovarian cancer OVCAR-3; assay type: in vivo; details: Panel M, 9 weeks
Method: as §1, §2, §3
(§4) Xenograft models of human cancers in nude mice. Female athymic (NCr nu/nu) nude mice, 5-to 6-weeks-old, obtained from the Envigo labs (Tampa, FL), were housed in laminar airflow cabinets under pathogen-free conditions with a 12-h light/12-h dark schedule, and were fed autoclaved standard chow and water. […] Tumor sizes were measured weekly.
(§5) Statistical analysis. […] Data are expressed as Mean±SEM. […]

PC3 xenograft = experiment: Xenograft tumor growth in nude mice, prostate cancer PC3; assay type: in vivo; details: Panel N, 8 weeks, 5 μg/day s.c.
Method: as §1, §2, §3, §4, §5

CCCC[C@H](NC(=O)[C@@H](NC(=O)[C@H](CC(=O)O)NC(=O)[C@H](CCC(N)=O)NC(=O)[C@H](CC(C)C)NC(=O)[C@H](CC(C)C)NC(=O)[C@H](CCCCN)NC(=O)[C@H](CCCNC(=N)N)NC(=O)[C@H](C)NC(=O)[C@H](CO)NC(=O)[C@H](CC(C)C)NC(=O)[C@H](CCC(N)=O)NC(=O)[C@H](CC)NC(=O)[C@H](CC(C)C)NC(=O)[C@@H](NC(=O)[C@H](CCCCN)NC(=O)[C@H](CCCNC(=N)N)NC(=O)[C@H](Cc1ccc(OC)cc1)NC(=O)[C@H](CCCCNC(=N)N)NC(=O)[C@H](C)NC(=O)[C@@H](NC(=O)[C@H](Cc1c(F)c(F)c(F)c(F)c1F)NC(=O)[C@@H](NC(=O)[C@H](C)NC(=O)[C@H](CC(=O)O)NC(=O)[C@@H](CCCNC(=N)N)NC(=O)[C@H](Cc1ccc(O)cc1)NC(=O)CCCCCCCCCCCNC(=O)Cc1c(F)c(F)c(F)c(F)c1F)[C@@H](C)CC)[C@@H](C)O)C(C)C)[C@@H](C)CC)C(=O)N[C@H](CCCNC(=N)N)C(=O)N[C@@H](CCCCNC(=N)N)C(=O)NCCCCCCCCCCCC(N)=O [AVR-352, 5FPhAC-Ada-Tyr-DArg-Asp-Ala-Ile-5FPhe-Thr-Ala-Har-Tyr(Me)-Arg-Lys-Val-Leu-Abu-Gln-Leu-Ser-Ala-Arg-Lys-Leu-Leu-Gln-Asp-Ile-Nle-DArg-Har-Ada-NH2] ({Phenylacetyl(2,3,4,5,6-F5)-12Ado}-Y[dR]DAI[Phe(F5)]TA[hArg]Y(Me)RKVL[Abu]QLSARKLLQDI[Nle][dR][hArg][12Ado]-NH2) was tested, and the “Inhibitory effect on the release of GH compared with MIA-602” value (rat pituitary cells) was “higher inhibitory effects than MIA-602”, the “Binding affinity to membrane receptors of human pituitary cells” value [1] was “higher binding affinity in comparison to MIA-602” and the “% Inhibition” value (CFPAC-1 xenograft) was 18.0%. For the same compound, the “Tumor Growth %” value (SK-OV-3 xenograft; 2.5 μg/day s.c.) was 718.4%, the “% Inhibition” value (SK-OV-3 xenograft; 2.5 μg/day s.c., vs control) was 45.0% and the “Tumor Growth %” value (SK-OV-3 xenograft; 5 μg/day s.c.) was 422.3%. The “Tumor Growth %” value (OVCAR-3 xenograft; 2.5 μg/day s.c.) was 307.7%, the “Tumor Growth %” value (OVCAR-3 xenograft; 5 μg/day s.c.) was 199.9% and the “Tumor Growth %” value (PC3 xenograft) was 413.3%. The “% Inhibition” value (PC3 xenograft; vs control) was 50.0%.
